At least one structure is not confirmed: it was looked up by name or label, or the drawing left a doubt.
System: type II collagen-induced arthritis
Assay: Effects of PDT on model mice with type II collagen-induced arthritis
Assay type: in vivo
Conditions: 5 mg/kg i.v.; laser 30 J/cm^2 3 hours after administration; Day 14; irradiated test group
Method: Test 2 (in vivo Test): Effects of PDT on Model Mice with Type II Collagen-Induced Arthritis Male DBA/1 mice, aged6 to 8 weeks and weighing 15 to 18 g, were used. Arthritis was induced by type II collagen according to the following schedule. On Day 0, 2 mg. of anti-type II collagen antibody cocktail was intraperitoneally injected. On Day 1, 2 mg of anti-type II collagen antibody cocktail was again intraperitoneally injected. On Day 2 and Day 3, 50 μg of lipopolysaccharide (LPS) was intraperitoneally injected to induce type II collagen arthritis. On Day 5, induction of type II collagen arthritis was confirmed. A test group of 5 animals and a control group of 3 animals were intravenously injected with 5 mg/kg of ATX-S10•Na. The test group was exposed to laser irradiation (dose: 30 J/cm^2) 3 hours after administration of ATX-S10•Na. […] Each animal was perfusion-fixed, and joint tissue was collected and stained with Safranin 0. The resulting decalcified tissue sample was subjected to histological analysis.

C=CC1=C(C)C2=CC3=C(/C=C/NO)C(C)(O)C(=CC4=NC(=CC5=NC(=CC1=N2)C(C)=C5CCC(=O)N[C@@H](CC(=O)[O-])C(=O)[O-])C(CCC(=O)N[C@@H](CC(=O)[O-])C(=O)[O-])=C4C)N3.[Na+].[Na+].[Na+].[Na+] (stereo partly shown) [ATX-S10•Na]
clinical arthritis score: 0 or 1

— patent US20050209298A1, “Method of photodynamic diagnosis for vascular diseases” (HAMAMATSU PHOTONICS K.K, priority 2002, published 2005)
